Screening data, single-dose tests

The values are deposited in ChEMBL (CHEMBL3988442, “University of Dundee, Small-Polar-MMV Screening Library” (2021)).

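Assay of Toxoplasma gondii numbers, read through their beta-galactosidase reporter with a colour substrate. Compounds at 50 µM. Higher reads as fewer parasites (inferred from which compounds were picked for retests). About 18,000 compounds were tested under these conditions; 0.94% (about 170) showed 50% or more at least once.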

Each number is a percent effect as filed.
The record does not define 0% and 100%; most values in the screen are far below 50% and negative numbers occur (in some assays of this library far below -100).
The compounds are a random part of those screened.

| # | SMILES | effect |
|---|---|---|
| 1 | `CN(C)CC(=O)Nc1ccc(Br)cn1` | -15.98% |
| 2 | `O=C(NC1CC1)c1cn2ccccc2n1` | -1.474% |
| 3 | `N#Cc1ccccc1NC(N)=O` | -2.395% |
| 4 | `O=C(Cn1cnc2sc3c(c2c1=O)CCC3)NC1CC1` | -0.4494% |
| 5 | `CN(Cc1cccnc1)C(=O)c1cccc(Cl)c1` | 11.97% |
| 6 | `CN(C)S(=O)(=O)CCCN1CCCC1c1ccco1` (configuration not stated) | -3.113% |
| 7 | `COCCn1cnnc1SCc1ccc(C#N)cc1` | -20.25% |
| 8 | `Cc1ccc(NC(=O)CN(C)CC(=O)N(C)C)cc1C` | 4.537% |
| 9 | `Cc1ccc(OC2CCN(C(=O)[C@@H](C)N)CC2)cc1` | 10.22% |
| 10 | `Cn1cc(C(=O)NC2CCN(CCC(N)=O)CC2)cn1` | 1.1% |
| 11 | `COc1cc(CN2CCNCC2)cc(OC)c1` | 2.889% |
| 12 | `CC(C)C(N)C1(CO)CCC1` (configuration not stated) | -14.82% |
| 13 | `CNc1cc(C(=O)NCC(OC)c2cccs2)ccn1` (configuration not stated) | 9.07% |
| 14 | `O=C(c1cccc(F)c1)N1CCN(c2nccs2)CC1` | -4.264% |
| 15 | `CC(C)OCCCNC(=O)C1CCNC1` (configuration not stated) | 32.65% |
| 16 | `CCN(CCS(=O)(=O)c1ccccc1)CC(C)C#N` (configuration not stated) | -15.83% |
| 17 | `Cc1nc(CN(CCO)Cc2nccn2C)cs1` | 9.456% |
| 18 | `Cc1ccc(NC(=O)c2nn(C)cc2Br)nc1` | 1.993% |
| 19 | `CC(C)(N)c1nc2c(c(=O)[nH]1)CCCCC2` | 4.039% |
| 20 | `CN(CCC#N)C(=O)CN1C(=O)c2ccccc2C1=O` | -5.158% |
| 21 | `COc1cccc(NC(CN)c2ccccc2)c1` (configuration not stated) | 24.06% |
| 22 | `CN(Cc1cc(Cl)cn1C)C(=O)c1cnn(C)c1` | 0.8782% |
| 23 | `COCC(Nc1nc(C(C)C)ns1)C(N)=O` (configuration not stated) | -11.05% |
| 24 | `CN(C)S(=O)(=O)NCCC(C)(C)C(F)(F)F` | -9.047% |
| 25 | `N[C@H]1CN(CC(=O)N2CCCCCC2)C[C@@H]1C1CC1` | 1.251% |
| 26 | `c1cncc(NCc2ccsc2)c1` | -7.104% |
| 27 | `Cc1noc(C)c1S(=O)(=O)NC(C)c1cccnc1` (configuration not stated) | 13.48% |
| 28 | `NCc1cccc(CN2CCCC2)c1` | 60.68% |
| 29 | `NCC(O)c1ccc(F)cc1F` (configuration not stated) | 10.12% |
| 30 | `Cc1nn(CCO)c(C)c1CNCCn1cccn1` | -0.05301% |
| 31 | `CCN1CCCC1CNS(=O)(=O)c1cnn(C)c1` (configuration not stated) | -3.213% |
| 32 | `CC(C)C1CCCN1C(=O)c1cccc(NC(N)=O)c1` (configuration not stated) | -7.686% |
| 33 | `CN(Cc1cccc(C(N)=O)c1)C(=O)c1occc1Br` | -6.441% |
| 34 | `CCc1nnsc1C(=O)N1CCN(c2nccs2)CC1` | 8.148% |
| 35 | `C[S+]([O-])c1nncn1Cc1ccccc1Cl` (configuration not stated) | -6.432% |
| 36 | `COCc1noc(C(C)N2CCC(C)(C)C2)n1` (configuration not stated) | -3.427% |
| 37 | `CCO[C@H]1CN(c2ncccc2C(F)(F)F)C[C@@H]1O` | 5.674% |
| 38 | `CN(CCCOc1ccccc1)CC(=O)NC(N)=O` | -5.666% |
| 39 | `CN(CC(C)(C)O)c1nccc2occc12` | -0.2706% |
| 40 | `CC(C)(N)CN1CCCN(c2ccc(F)cc2)CC1` | 42.46% |
| 41 | `CCNc1ncc(C(=O)N2CC[C@H]3CNC[C@H]32)cn1` | 14.96% |
| 42 | `Cc1nc(NC(=O)c2ccc3c(c2)NC(=O)CS3)n[nH]1` | -5.693% |
| 43 | `CNCC1CCN(C(=O)Nc2ccccc2)CC1` | -5.234% |
| 44 | `Cc1noc(C)c1CNC(=O)CCC1CCCN(C)C1` (configuration not stated) | -7.121% |
| 45 | `Brc1ccc2c(c1)OCCNC2` | 2.173% |
| 46 | `CN(C)Cc1ccc(C(=O)NCCCc2ccco2)o1` | 6.404% |
| 47 | `CNC(=O)CSc1nnc(N)n1C1CC1` | 14.19% |
| 48 | `O=C(N[C@@H]1CCNC[C@H]1O)c1ccc(Cl)cn1` | -7.368% |
| 49 | `Nc1ccc(N2CCCC2=O)cn1` | -2.634% |
| 50 | `COc1ccc(C)cc1NC(=O)Cn1ccnc1` | 17.12% |
| 51 | `CCN1CCN(C(=O)c2cccc3cccnc23)CC1` | 0.2789% |
| 52 | `Cc1ccc(-c2noc([C@H]3CCCN3)n2)nn1` | 9.593% |
| 53 | `Cc1onc(N)c1S(=O)(=O)NCc1ccccn1` | -3.668% |
| 54 | `CC(C)(O)CCNc1cccc(S(C)(=O)=O)c1` | 29.26% |
| 55 | `C[C@@H]1CN(C(=O)NC(C)(C)C)C[C@]1(C)O` | 5.923% |
| 56 | `Cc1cc(C(=O)N2CCOCC3(CC3)C2)n(C)n1` | 0.106% |
| 57 | `CC(Cc1ccccc1F)C(=O)N1CC[C@H](O)C1` (some centres not stated) | 5.848% |
| 58 | `N#CCc1ccc2ccccc2n1` | 13.41% |
| 59 | `CC(C)c1n[nH]c(C(=O)NCCN2CCOCC2)c1Br` | -5.693% |
| 60 | `COCC1CCCN1Cc1nc(N)nc(N(C)C)n1` (configuration not stated) | 28.24% |
| 61 | `NCCNS(=O)(=O)c1ccccc1-c1ccccc1` | 1.63% |
| 62 | `CCc1c(C(=O)N(C)C)cnn1-c1ccccc1` | 0.5579% |
| 63 | `c1cc2c(cc1CN1CCNCC1)OCCO2` | -0.788% |
| 64 | `CCn1nc(C(=O)N2CC[C@@H](N)[C@@H](OC)C2)cc1C` | -13.79% |
| 65 | `CNC(=O)C(O)CNS(=O)(=O)c1ccc(C)cc1F` (configuration not stated) | -18.92% |
| 66 | `CN1CCCCC1CCC(=O)NCCCn1cccn1` (configuration not stated) | -6.664% |
| 67 | `COCCS(=O)(=O)NC1CCCCC1` | -15.5% |
| 68 | `O=C(c1cnc[nH]1)N1CCC(O)(CN2CCCC2)CC1` | 5.334% |
| 69 | `CN1CN(C(=O)c2ccc(Br)cc2Cl)CC1=O` | -0.9962% |

Once more, the final 7:

SMILES,effect
c1cc2c(cc1CN1CCNCC1)OCCO2,-0.788%
CCn1nc(C(=O)N2CC[C@@H](N)[C@@H](OC)C2)cc1C,-13.79%
CNC(=O)C(O)CNS(=O)(=O)c1ccc(C)cc1F (configuration not stated),-18.92%
CN1CCCCC1CCC(=O)NCCCn1cccn1 (configuration not stated),-6.664%
COCCS(=O)(=O)NC1CCCCC1,-15.5%
O=C(c1cnc[nH]1)N1CCC(O)(CN2CCCC2)CC1,5.334%
CN1CN(C(=O)c2ccc(Br)cc2Cl)CC1=O,-0.9962%